This assay deals with γ-aminobutyric acid receptor type B (GABAB) subunit 2 (human) (UniProt O75899). Briefly: SDS-PAGE with autoradiography; 14C-leucine-labelled proteins from individual or equimolar coexpression in Sf21 cell-free lysate; acetone-precipitated, LDS sample buffer, SDS-PAGE; dimeric band quantified by densitometry (ImageQuant TL, data not shown).

Results are given in words; binding and its absence hold for the method and conditions named. Some binding calls cover weakened binding; strength is not graded here.

B1: γ-aminobutyric acid receptor type B (GABAB) subunit 2 (receptor, UniProt O75899 42-941)
chain: WARGAPRPPPSSPPLSIMGLMPLTKEVAKGSIGRGVLPAVELAIEQIRNESLLRPYFLDLRLYDTECDNAKGLKAFYDAIKYGPNHLMVFGGVCPSVTSIIAESLQGWNLVQLSFAATTPVLADKKKYPYFFRTVPSDNAVNPAILKLLKHYQWKRVGTLTQDVQRFSEVRNDLTGVLYGEDIEISDTESFSNDPCTSVKKLKGNDVRIILGQFDQNMAAKVFCCAYEENMYGSKYQWIIPGWYEPSWWEQVHTEANSSRCLRKNLLAAMEGYIGVDFEPLSSKQIKTISGKTPQQYEREYNNKRSGVGPSKFHGYAYDGIWVIAKTLQRAMETLHASSRHQRIQDFNYTDHTLGRIILNAMNETNFFGVTGQVVFRNGERMGTIKFTQFQDSREVKVGEYNAVADTLEIINDTIRFQGSEPPKDKTIILEQLRKISLPLYSILSALTILGMIMASAFLFFNIKNRNQKLIKMSSPYMNNLIILGGMLSYASIFLFGLDGSFVSEKTFETLCTVRTWILTVGYTTAFGAMFAKTWRVHAIFKNVKMKKKIIKDQKLLVIVGGMLLIDLCILICWQAVDPLRRTVEKYSMEPDPAGRDISIRPLLEHCENTHMTIWLGIVYAYKGLLMLFGCFLAWETRNVSIPALNDSKYIGMSVYNVGIMCIIGAAVSFLTRDQPNVQFCIVALVIIFCSTITLCLVFVPKLITLRTNPDAATQNRRFQFTQNQKKEDSKTSTSVTSVNQASTSRLEGLQSENHRLRMKITELDKDLEEVTMQLQDTPEKTTYIKQNHYQELNDILNLGNFTESTDGGKAILKNHLDQNPQLQWNTTEPSRTCKDPIEDINSPEHIQRRLSLQLPILHHAYLPSIGGVDASCVSPCVSPTASPRHRHVPPSFRVMVSGL
modifications: 14C-leucine (autoradiography only); N-glycosylated
In the case of B1, the binding result was “binds weakly”.

For the origin of these results see paper PMC9715706.
